The record followed here is patent US12673953B2, “Process for preparing an amorphous form of 2-[3-[4-amino-3-(2-fluoro-4-phenoxyphenyl)pyrazolo[3,4-d]pyrimidin-1-yl]piperidine-1-carbonyl]-4-methyl-4-[4-(oxetan-3-yl)piperazin-1-yl]pent-2-enenitrile” (Principia Biopharma Inc., priority 2019, dated 2026).

Read-outs that look alike come from different tables or passages of the source.

The series in a line: Residual solvent analysis by gas chromatography-mass spectrometry. Format: physicochemical. The text has this:
Retention of process solvents (i.e., residual solvents) depends on van der Waals' forces that are unique to and an inherent property of each molecule. Additionally, solvent retention depends how the API solid is formed, isolated, washed, and dried (i.e., during the manufacturing process). Because residual solvents may pose safety risks, pharmaceutical processes should be designed to minimize residual solvent levels (e.g., to result in residual solvent levels below the limits established in the ICH guidelines). Residual solvent analysis was performed using gas chromatography-mass spectrometry. The residual solvent levels in solid forms of Compound (I) prepared by spray drying processes described herein and precipitation processes described herein are provided in Table 2.

[1] abbreviates: listed as Compound (I) produced by a spray drying process described herein.
[2] abbreviates: result in words, Example 3 Precipitation Process A.

Turning to `CC(C)(C=C(C#N)C(=O)N1CCCC(n2nc(-c3ccc(Oc4ccccc4)cc3F)c3c(N)ncnc32)C1)N1CCN(C2COC2)CC1` (stereo not shown) [Compound (I) free base, 2-[3-[4-amino-3-(2-fluoro-4-phenoxy-phenyl)pyrazolo[3,4-d]pyrimidin-1-yl]piperidine-1-carbonyl]-4-methyl-4-[4-(oxetan-3-yl)piperazin-1-yl]pent-2-enenitrile], the “Residual solvent level: Heptane (n-Heptane)” value was less than 0.05% and the “Residual solvent level: Isopropyl acetate” value was “below 0.5%”.

As to `CC(C)(C=C(C#N)C(=O)N1CCCC(n2nc(-c3ccc(Oc4ccccc4)cc3F)c3c(N)ncnc32)C1)N1CCN(C2COC2)CC1` (stereo not shown) [Compound (I) prepared by a spray drying process described he] [2-[3-[4-amino-3-(2-fluoro-4-phenoxy-phenyl)pyrazolo[3,4-d]pyrimidin-1-yl]piperidine-1-carbonyl]-4-methyl-4-[4-(oxetan-3-yl)piperazin-1-yl]pent-2-enenitrile], the “Residual solvent level: Methanol” value worked out at 302 ppm. Further, under setting [1], the “Residual solvent level: Heptane (n-Heptane)” value came out at 426 ppm and the “Residual solvent level: Isopropyl acetate” value is reported as 3081 ppm.

In the case of `CC(C)(C=C(C#N)C(=O)N1CCCC(n2nc(-c3ccc(Oc4ccccc4)cc3F)c3c(N)ncnc32)C1)N1CCN(C2COC2)CC1` (stereo not shown) [Compound (I) produced by a precipitation process described h] [2-[3-[4-amino-3-(2-fluoro-4-phenoxy-phenyl)pyrazolo[3,4-d]pyrimidin-1-yl]piperidine-1-carbonyl]-4-methyl-4-[4-(oxetan-3-yl)piperazin-1-yl]pent-2-enenitrile], the “Residual solvent level: Heptane (n-Heptane)” value is given as less than 500 ppm and the “Residual solvent level: Isopropyl acetate” value is given as less than 500 ppm. For the setting “result in words”, the “Residual solvent level: Methanol” value is on record as “None”.

Take `CC(C)(C=C(C#N)C(=O)N1CCCC(n2nc(-c3ccc(Oc4ccccc4)cc3F)c3c(N)ncnc32)C1)N1CCN(C2COC2)CC1` (stereo not shown) [crude Compound (I) (before spray drying), 2-[3-[4-amino-3-(2-fluoro-4-phenoxy-phenyl)pyrazolo[3,4-d]pyrimidin-1-yl]piperidine-1-carbonyl]-4-methyl-4-[4-(oxetan-3-yl)piperazin-1-yl]pent-2-enenitrile]: the “Residual solvent level: Heptane (n-Heptane)” value was 5.00% and the “Residual solvent level: Isopropyl acetate” value was 2.00%. Moreover, the “Residual solvent level: Methanol” value (result in words) is reported as “None”.

Turning to `CC(C)(C=C(C#N)C(=O)N1CCCC(n2nc(-c3ccc(Oc4ccccc4)cc3F)c3c(N)ncnc32)C1)N1CCN(C2COC2)CC1` (stereo not shown) [free base of Compound (I), 2-[3-[4-amino-3-(2-fluoro-4-phenoxy-phenyl)pyrazolo[3,4-d]pyrimidin-1-yl]piperidine-1-carbonyl]-4-methyl-4-[4-(oxetan-3-yl)piperazin-1-yl]pent-2-enenitrile], under setting [2], the “Residual solvent level: Isopropyl acetate” value is on record as “no detectible levels” and the “Residual solvent level: heptane” value is listed as “no detectible levels”.
